Results taken from patent US8420629B2, “Azetidine and cyclobutane derivatives as JAK inhibitors” (Incyte Corporation, priority 2008, dated 2013).
pIC50: −log10 of the molar value. Counter-ions that a name gives are not always drawn. Some entries share one result that the patent states for a list of compounds.

Molecular target: T1, catalytic domains of human JAK1 (a.a. 837-1142), Jak2 (a.a. 828-1132) and Jak3 (a.a. 781-1124)
T1 construct: The catalytic domains of human JAK1 (a.a. 837-1142), Jak2 (a.a. 828-1132) and Jak3 (a.a. 781-1124) with an N-terminal His tag were expressed using baculovirus in insect cells and purified; fused on or other part: N-terminal His tag
Test: In Vitro JAK Kinase Assay (HTRF, phosphorylation of a biotinylated peptide)
Assay type: biochemical
Details: lowest of the three kinases, kinase not specified; ATP 90 μM for Jak1, 30 μM for Jak2, 3 μM for Jak3; room temperature, 1 hr; read-out: IC50 values for at least one of JAK1, JAK2, and JAK3

CCS(=O)(=O)N1CC(CC#N)(n2ccc(-c3ncnc4[nH]ccc34)c2)C1 [Example 82, {1-(Ethylsulfonyl)-3-[3-(7H-pyrrolo[2,3-d]pyrimidin-4-yl)-1H-pyrrol-1-yl]azetidin-3-yl}acetonitrile]
pIC50: > 7.22

CCS(=O)(=O)N1CC(CF)(n2cc(-c3ncnc4[nH]ccc34)cn2)C1 [Example 83, 4-{1-[1-(Ethylsulfonyl)-3-(fluoromethyl)azetidin-3-yl]-1H-pyrazol-4-yl}-7H-pyrrolo[2,3-d]pyrimidine trifluoroacetic acid salt]
pIC50: > 7.22
